Assay results: patent US20030036169A1
Results are given in words; binding and its absence hold for the method and conditions named. Some binding calls cover weakened binding; strength is not graded here.

Chains of the proteins cited; added tags and fusions are not shown. Lines headed by an entry give the natural chain unless they say otherwise; changes in a name come on top.
UniProt O35430: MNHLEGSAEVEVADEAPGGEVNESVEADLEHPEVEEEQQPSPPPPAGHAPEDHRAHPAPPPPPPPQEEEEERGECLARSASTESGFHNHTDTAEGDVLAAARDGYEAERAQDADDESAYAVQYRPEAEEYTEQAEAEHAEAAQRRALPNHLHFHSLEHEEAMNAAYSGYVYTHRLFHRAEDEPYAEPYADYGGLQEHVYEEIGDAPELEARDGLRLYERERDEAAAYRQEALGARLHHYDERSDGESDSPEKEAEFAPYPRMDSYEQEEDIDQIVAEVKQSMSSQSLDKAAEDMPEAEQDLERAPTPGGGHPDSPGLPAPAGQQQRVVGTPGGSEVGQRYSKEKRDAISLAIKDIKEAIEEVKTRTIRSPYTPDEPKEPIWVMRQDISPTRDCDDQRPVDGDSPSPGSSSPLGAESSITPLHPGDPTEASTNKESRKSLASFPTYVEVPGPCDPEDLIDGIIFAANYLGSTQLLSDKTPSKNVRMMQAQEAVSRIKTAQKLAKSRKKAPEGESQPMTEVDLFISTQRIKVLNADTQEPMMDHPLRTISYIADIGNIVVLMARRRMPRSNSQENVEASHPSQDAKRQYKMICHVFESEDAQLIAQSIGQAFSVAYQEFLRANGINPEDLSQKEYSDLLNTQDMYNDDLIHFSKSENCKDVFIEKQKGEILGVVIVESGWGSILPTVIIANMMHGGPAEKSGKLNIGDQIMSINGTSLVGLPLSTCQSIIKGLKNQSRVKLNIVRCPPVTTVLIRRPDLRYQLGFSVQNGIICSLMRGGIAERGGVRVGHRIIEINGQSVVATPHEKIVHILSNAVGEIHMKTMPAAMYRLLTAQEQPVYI
UniProt O35431: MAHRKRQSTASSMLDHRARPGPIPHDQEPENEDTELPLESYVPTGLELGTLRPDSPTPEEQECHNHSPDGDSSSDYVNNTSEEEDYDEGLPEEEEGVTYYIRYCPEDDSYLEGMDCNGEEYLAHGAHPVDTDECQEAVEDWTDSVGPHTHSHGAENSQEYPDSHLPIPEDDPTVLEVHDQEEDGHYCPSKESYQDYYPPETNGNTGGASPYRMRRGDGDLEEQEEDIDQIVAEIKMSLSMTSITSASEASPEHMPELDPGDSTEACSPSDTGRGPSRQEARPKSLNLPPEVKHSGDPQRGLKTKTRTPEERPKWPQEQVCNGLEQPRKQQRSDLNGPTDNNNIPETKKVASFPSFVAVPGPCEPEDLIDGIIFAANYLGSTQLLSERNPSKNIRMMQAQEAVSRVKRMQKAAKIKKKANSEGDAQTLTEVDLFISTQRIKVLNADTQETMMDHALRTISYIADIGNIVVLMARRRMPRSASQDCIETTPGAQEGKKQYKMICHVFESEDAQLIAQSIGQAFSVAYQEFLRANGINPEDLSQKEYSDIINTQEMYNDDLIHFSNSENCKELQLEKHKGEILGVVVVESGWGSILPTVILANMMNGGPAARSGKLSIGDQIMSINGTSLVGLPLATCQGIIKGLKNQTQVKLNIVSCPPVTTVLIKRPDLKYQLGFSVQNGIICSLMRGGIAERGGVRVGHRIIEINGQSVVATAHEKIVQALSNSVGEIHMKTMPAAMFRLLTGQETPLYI
UniProt O70248: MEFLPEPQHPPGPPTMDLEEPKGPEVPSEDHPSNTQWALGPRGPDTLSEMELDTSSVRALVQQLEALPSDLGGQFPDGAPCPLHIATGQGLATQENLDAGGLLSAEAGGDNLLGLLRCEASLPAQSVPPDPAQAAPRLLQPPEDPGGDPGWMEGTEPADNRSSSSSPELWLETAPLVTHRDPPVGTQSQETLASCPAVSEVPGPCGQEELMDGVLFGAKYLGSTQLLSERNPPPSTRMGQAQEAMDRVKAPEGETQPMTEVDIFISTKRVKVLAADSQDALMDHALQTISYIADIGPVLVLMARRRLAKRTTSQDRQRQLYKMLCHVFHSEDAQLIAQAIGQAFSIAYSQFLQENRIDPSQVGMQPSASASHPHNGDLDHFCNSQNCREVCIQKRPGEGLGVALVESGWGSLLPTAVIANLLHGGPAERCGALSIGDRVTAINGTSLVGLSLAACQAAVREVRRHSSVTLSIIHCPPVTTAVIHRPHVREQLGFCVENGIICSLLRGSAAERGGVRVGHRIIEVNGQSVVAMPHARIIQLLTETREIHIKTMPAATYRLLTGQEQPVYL

Assays:
Mint 1 (rat) = Mint 1 (rat) (UniProt O35430); experiment: soluble peptide (0.1 or 1.0 mg/ml) competing with the immobilized APP tail peptide for rat brain Mint 1
Mint 2 (rat) = Mint 2 (rat) (UniProt O35431); experiment: soluble peptide (0.1 or 1.0 mg/ml) competing with the immobilized APP tail peptide for rat brain Mint 2
Mint 3 (rat) = Mint 3 (rat) (UniProt O70248); experiment: soluble peptide (0.1 or 1.0 mg/ml) competing with the immobilized APP tail peptide for rat brain Mint 3

Measured: binding

B1: soluble peptide …, native APP NPTY motif (peptide)
peptide: QNGYENPTYKFFEQ
binds: all assays above
